Earlier results as cited in US20140065697A1, “CELLS AND METHODS FOR PRODUCING ISOBUTYRIC ACID” (Regents of the University of Minnesota, priority 2011, published 2014).
The name of at least one read-out is uncertain.

Biological target: T1, PadA (Escherichia coli, UniProt P80668)
T1 construct: […]; 6xHis (N); made in house; host or cells: E. coli BL-21 harboring pREP4; plasmid pIBA10 (pQE9)
T1 sequence (P80668 1-499): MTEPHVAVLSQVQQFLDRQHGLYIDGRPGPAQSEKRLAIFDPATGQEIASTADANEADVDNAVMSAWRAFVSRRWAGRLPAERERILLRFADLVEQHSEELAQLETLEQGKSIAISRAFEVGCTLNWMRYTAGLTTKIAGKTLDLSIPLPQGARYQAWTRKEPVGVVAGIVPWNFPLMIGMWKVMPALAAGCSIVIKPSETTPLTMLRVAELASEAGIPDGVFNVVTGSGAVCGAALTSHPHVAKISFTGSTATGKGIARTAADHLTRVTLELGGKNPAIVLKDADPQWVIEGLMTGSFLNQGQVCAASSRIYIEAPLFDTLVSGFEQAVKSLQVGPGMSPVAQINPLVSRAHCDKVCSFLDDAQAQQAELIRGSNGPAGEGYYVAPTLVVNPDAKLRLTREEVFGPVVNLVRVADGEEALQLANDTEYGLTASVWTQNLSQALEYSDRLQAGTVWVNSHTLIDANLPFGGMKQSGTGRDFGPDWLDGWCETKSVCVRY
Conditions: natural substrate phenylacetaldehyde (asterisked line); cited from earlier work

In the case of `O=CCc1ccccc1` [Phenylacetaldehyde, phenylacetaldehyde], the kcat/Km is given as 501,000 mM^−1 · min^−1.
